Measured values from a protein production outcome set (Wang et al. 2014).

Experiment: label from the status in PepcDB records
In the case of “MSADVERVLIQLQDEAGEVLGSPFDVPLDISPDKLQLVCNALLQKEEPVPFLFFVKDAELVSSLGSCIQTLGLETEQVLPVVYQPQAVFRVRAVARCTSSLEGHTEAVISVAFSPTGKYLASGSGDTTVRFWDLSTETPHHTSRGHTHWVLSIAWSPDGKKLASGCKNSQIFLWDPVTGKQIGKTLTGHTKWITWLCWEPLHLNPECRYLASTSKDCTIRIWDTVLGRYDKILTGHTHSVTCVKWGGDGLLYTSSQDRTIKVWRAKDGVQCRTLQGHAHWVNTLALSTDYVLRTGAFEPANATINPQDLTGSLEEIKEKALKRYNSVRGEGHERLVSGSDDFTMFLWNPAEDKKPVARLTGHQALVNEVLFSPDTRLIASASFDKSIKIWDGKTGKYLNSLRGHVGPVYQVAWSADSRLLVSGSSDSTLKVWDIKTGKLNADLPGHADEVFAVDWSPDGQRVASGGKDKCLRIWRK”, the protein production is reported as “not failed”.
With “MSDIQHQRMVTLCDDLKFLAVTDVYADLADAAAKQESSYIDYLEQVLKAENDVRQGRSRHTMAKLAGFPAIKTLEDYDFDFATGAPKQRILDLSAMAFLERRENVILLGPSGTGKTHLAIALGYRATQCGVKVRFISAADLMLQLESAQRQGRYKEVMRRSVLGPRLLIIDEIGYLPFSETQANLFFQVIAKRYETGSVILTSNLSFGEWEQAFGGNTALTSAMLDRLLHHAHVIQIRGDSYRLKEKRRAGILGQQLPTPQMDDLEHHHHHH” the protein production was “not failed”.
In the case of “SGGVTSSIAAKFAFFPPTPPSYEVIADDSCGGRLYIPEIPRRDDVDILKLRTRCGNEIVAVYVKHSKANGTLLYSHGNAADLGQMFELFVELSNRLRVNLMGYDYSGYGQSTGQASECNTYADIEASYKCLKEKYGVEDDQLIVYGQSVGSGPTVDLASRTPNLRGVVLQCPILSGMRVLYPVKCTYWFDIYKNIDKIGSVTCPVLVIHGTADEVVDWSHGKRLWELSKEKYEPLWISGGGHCDLELYPDFIRHLKKFVVSLGNKQAEQAPT”, the protein production is reported as “failed”.
